These are yes or no findings as the source states them, for the method shown. Binding seen in cells or lysates may run through a third protein. Some entries that bind do so weakly or less than the wild type.
B1: OGT, endogenous (enzyme, UniProt O15294 1-1046)
chain: MASSVGNVADSTEPTKRMLSFQGLAELAHREYQAGDFEAAERHCMQLWRQEPDNTGVLLLLSSIHFQCRRLDRSAHFSTLAIKQNPLLAEAYSNLGNVYKERGQLQEAIEHYRHALRLKPDFIDGYINLAAALVAAGDMEGAVQAYVSALQYNPDLYCVRSDLGNLLKALGRLEEAKACYLKAIETQPNFAVAWSNLGCVFNAQGEIWLAIHHFEKAVTLDPNFLDAYINLGNVLKEARIFDRAVAAYLRALSLSPNHAVVHGNLACVYYEQGLIDLAIDTYRRAIELQPHFPDAYCNLANALKEKGSVAEAEDCYNTALRLCPTHADSLNNLANIKREQGNIEEAVRLYRKALEVFPEFAAAHSNLASVLQQQGKLQEALMHYKEAIRISPTFADAYSNMGNTLKEMQDVQGALQCYTRAIQINPAFADAHSNLASIHKDSGNIPEAIASYRTALKLKPDFPDAYCNLAHCLQIVCDWTDYDERMKKLVSIVADQLEKNRLPSVHPHHSMLYPLSHGFRKAIAERHGNLCLDKINVLHKPPYEHPKDLKLSDGRLRVGYVSSDFGNHPTSHLMQSIPGMHNPDKFEVFCYALSPDDGTNFRVKVMAEANHFIDLSQIPCNGKAADRIHQDGIHILVNMNGYTKGARNELFALRPAPIQAMWLGYPGTSGALFMDYIITDQETSPAEVAEQYSEKLAYMPHTFFIGDHANMFPHLKKKAVIDFKSNGHIYDNRIVLNGIDLKAFLDSLPDVKIVKMKCPDGGDNADSSNTALNMPVIPMNTIAEAVIEMINRGQIQITINGFSISNGLATTQINNKAATGEEVPRTIIVTTRSQYGLPEDAIVYCNFNQLYKIDPSTLQMWANILKRVPNSVLWLLRFPAVGEPNIQQYAQNMGLPQNRIIFSPVAPKEEHVRRGQLADVCLDTPLCNGHTTGMDVLWAGTPMVTMPGETLASRVAASQLTCLGCLELIAKNRQEYEDIAVKLGTDLEYLKKVRGKVWKQRISSPLFNTKQYTMELERLYLQMWEHYAAGNKPDHMIKPVEVTESA

The chains behind the UniProt entries cited, without tags or fusion partners. Where a name states a change or a piece, a line headed by the entry shows the natural chain unless it says otherwise. A line that says so, or that is headed by a name, gives the form on record, which may keep a tag or linker. Residues count along the entry.
kidney-type glutaminase (GLS1) isoform KGA, endogenous (human (endogenous in HB cell lines HepG2/HUH6)) (O94925, residues 55-669): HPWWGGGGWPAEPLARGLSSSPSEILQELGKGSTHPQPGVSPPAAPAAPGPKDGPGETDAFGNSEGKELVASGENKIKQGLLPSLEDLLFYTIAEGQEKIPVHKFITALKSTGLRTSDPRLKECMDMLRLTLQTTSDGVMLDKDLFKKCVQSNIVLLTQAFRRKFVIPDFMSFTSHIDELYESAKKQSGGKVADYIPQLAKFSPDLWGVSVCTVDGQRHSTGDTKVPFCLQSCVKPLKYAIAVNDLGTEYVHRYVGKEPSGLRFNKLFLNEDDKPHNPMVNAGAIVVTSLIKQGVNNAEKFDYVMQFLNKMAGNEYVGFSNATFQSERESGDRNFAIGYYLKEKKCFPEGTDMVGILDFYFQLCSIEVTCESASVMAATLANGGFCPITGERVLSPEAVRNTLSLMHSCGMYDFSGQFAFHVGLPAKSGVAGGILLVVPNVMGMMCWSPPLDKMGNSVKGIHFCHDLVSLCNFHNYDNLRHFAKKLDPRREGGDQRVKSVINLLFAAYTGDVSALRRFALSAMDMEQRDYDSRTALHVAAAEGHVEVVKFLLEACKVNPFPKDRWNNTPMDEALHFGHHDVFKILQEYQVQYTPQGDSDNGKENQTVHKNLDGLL
glutaminase C (GAC), splice variant of GLS1, endogenous (human (endogenous in HB cell lines HepG2/HUH6)) (O94925, form named): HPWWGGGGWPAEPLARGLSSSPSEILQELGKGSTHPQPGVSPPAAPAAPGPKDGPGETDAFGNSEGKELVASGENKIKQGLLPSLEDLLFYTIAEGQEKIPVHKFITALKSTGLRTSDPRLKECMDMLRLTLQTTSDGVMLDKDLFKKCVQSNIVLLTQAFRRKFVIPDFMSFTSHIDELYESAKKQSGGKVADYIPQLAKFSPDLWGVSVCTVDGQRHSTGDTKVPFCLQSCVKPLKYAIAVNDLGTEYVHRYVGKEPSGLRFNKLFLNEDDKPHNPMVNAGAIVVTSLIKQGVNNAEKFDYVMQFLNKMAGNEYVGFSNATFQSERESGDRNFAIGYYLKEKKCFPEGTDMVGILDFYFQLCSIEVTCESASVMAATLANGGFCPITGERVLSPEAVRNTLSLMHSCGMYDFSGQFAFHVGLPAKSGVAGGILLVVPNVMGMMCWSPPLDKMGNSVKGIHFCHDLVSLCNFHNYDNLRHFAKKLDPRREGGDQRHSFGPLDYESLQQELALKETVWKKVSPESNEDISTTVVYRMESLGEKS

Tests used:
Assay in all cases: co-IP; endogenous proteins in HB cell lysate (Western/IP lysis buffer); specific primary antibody (anti-KGA, anti-GAC or anti-OGT) or IgG control with Protein A/G PLUS-Agarose overnight at 4 °C, five washes, Western blot
[1] = target: T1, OGT, endogenous (human (endogenous in HB cell lines HepG2/HUH6)) (UniProt O15294)
T1 sequence: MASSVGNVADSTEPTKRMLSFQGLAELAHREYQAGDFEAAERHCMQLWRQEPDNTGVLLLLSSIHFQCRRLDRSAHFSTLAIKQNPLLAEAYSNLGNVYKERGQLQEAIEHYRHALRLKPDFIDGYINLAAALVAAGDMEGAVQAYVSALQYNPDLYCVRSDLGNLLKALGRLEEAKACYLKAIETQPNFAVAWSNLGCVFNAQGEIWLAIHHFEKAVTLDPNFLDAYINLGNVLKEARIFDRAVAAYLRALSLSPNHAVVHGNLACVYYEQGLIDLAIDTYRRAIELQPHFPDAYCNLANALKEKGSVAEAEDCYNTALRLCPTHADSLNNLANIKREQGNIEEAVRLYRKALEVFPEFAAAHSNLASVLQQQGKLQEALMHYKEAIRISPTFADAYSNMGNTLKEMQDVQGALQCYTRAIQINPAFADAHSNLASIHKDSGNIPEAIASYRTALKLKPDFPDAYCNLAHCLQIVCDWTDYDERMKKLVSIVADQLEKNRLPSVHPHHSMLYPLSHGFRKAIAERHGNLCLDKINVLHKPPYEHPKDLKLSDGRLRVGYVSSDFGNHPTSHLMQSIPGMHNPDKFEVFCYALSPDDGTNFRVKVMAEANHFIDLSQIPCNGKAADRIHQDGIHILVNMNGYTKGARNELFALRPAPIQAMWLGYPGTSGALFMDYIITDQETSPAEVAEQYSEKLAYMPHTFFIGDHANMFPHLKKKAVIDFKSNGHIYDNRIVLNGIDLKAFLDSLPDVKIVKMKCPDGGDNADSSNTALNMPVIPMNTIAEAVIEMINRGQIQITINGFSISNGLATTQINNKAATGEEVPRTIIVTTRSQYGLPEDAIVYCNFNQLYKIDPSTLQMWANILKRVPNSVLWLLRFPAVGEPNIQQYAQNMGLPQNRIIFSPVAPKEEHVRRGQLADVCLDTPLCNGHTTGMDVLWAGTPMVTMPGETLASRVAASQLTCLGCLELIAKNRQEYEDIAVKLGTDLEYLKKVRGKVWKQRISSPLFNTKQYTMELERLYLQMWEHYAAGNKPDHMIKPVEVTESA

[2] = target: glutaminase C (GAC), splice variant of GLS1, endogenous (human (endogenous in HB cell lines HepG2/HUH6)) (UniProt O94925)
[3] = target: kidney-type glutaminase (GLS1) isoform KGA, endogenous (human (endogenous in HB cell lines HepG2/HUH6)) (UniProt O94925)

Molecule	binding [1]	binding [2]	binding [3]
kidney-type glutaminase (GLS1) isoform KGA, endogenous (from UniProt O94925 55-669) (enzyme)	binds	–	–
B1	–	no binding	binds

Source: PMC11982200
